Results as given in the supplement of paper PMC5407854, “Inhibitor of ppGalNAc-T3-mediated O-glycosylation blocks cancer cell invasiveness and lowers FGF23 levels” (eLife, 2017).
Some of the results follow. Small differences around the control level are noise.

Key:
[1] = tested on: ppGalNAc-T3 sensor; assay: T3 sensor activation Q score (MG/GFP ratio z-score vs DMSO controls) (SD units); higher = more sensor activation (inhibition of ppGalNAc-T3 glycosylation); conditions: HEK293 sensor cells; 10 µM; 6 h
Experimental: (§1)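 Cells were treated with compound at 10 uM for 6 h, then MG/GFP ratio was read by flow cytometry (10,000 cells per well, duplicate wells). Q = (R - R_neg)/SD_neg relative to DMSO vehicle controls; the signal rises when the glycosyltransferase is inhibited.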

[2] = tested on: ppGalNAc-T2 sensor; assay: T2 sensor activation Q score (MG/GFP ratio z-score vs DMSO controls) (SD units); higher = more sensor activation (inhibition of ppGalNAc-T2 glycosylation); conditions: HEK293 sensor cells; 10 µM; 6 h
Experimental: as §1

Compound | T3 sensor activation Q score [1] | T2 sensor activation Q score [2]
CCc1cc(-c2n[nH]c(C)c2-c2ccccc2)c(O)cc1O | 0.01 | -0.365
CCOc1ccccc1C(=O)n1cc(Cl)cn1 | 0.59 | -0.055
CN(C(=O)CCC(=O)O)c1ccccc1C(=O)O | -0.435 | 0.52
O=C1CCS(=O)(=O)c2ccccc21 | -0.57 | -0.26
Cc1nc2nc(-c3ccccc3)cc(-c3ccccc3)n2n1 | 1.25 | -0.43
COc1ccc(CN2CCN(Cc3ccc4c(c3)OCO4)CC2)c(C)c1C | -0.225 | 0.315
CCCNC(=O)NC(C)C12CC3CC(CC(C3)C1)C2 (configuration not stated) | 0.7 | 0.06
Nc1nc(N)nc(-c2ccc(Oc3ccccc3)cc2)n1 | 0.62 | 0.845
CC(=O)c1c(C)n(C)c2ccc(O)cc12 | 0.48 | 1.28
c1ccc(CN2CCN(Cc3cccs3)CC2)cc1 | 0.53 | 1.35
NC(=O)CCSc1ccc(Cl)cc1 | 2.85 | 0.905
Cc1ccc(S(=O)(=O)N2CCN(C)CC2)cc1 | -0.02 | -0.245
OCCSc1ccc(-c2ccc(SCCO)cc2)cc1 | 0.95 | -0.77
NC(=O)C1CCCN(Cc2ccc(F)cc2)C1 (configuration not stated) | 0.505 | -0.6
CC(C)=CC(=O)CC(O)(c1ccccc1)C(F)(F)C(F)F (configuration not stated) | 0.315 | 0.42
CCOc1ccc(CN2CCc3ccccc3C2)cc1 | 0.11 | -0.465
O=C(Nc1cnc2ccccc2c1)C12CC3CC(CC(C3)C1)C2 | 0.025 | 0.83
CCN(CCN(C)C)Cc1ccc(C(C)C)cc1 | 0.33 | -0.505
CCCC(NS(=O)(=O)c1ccc(C)cc1)C(=O)O (configuration not stated) | -1.06 | -1.22

Compound | T3 sensor activation Q score [1] | T2 sensor activation Q score [2]
Cc1ccc(S(=O)(=O)c2ccc(-c3ccc([N+](=O)[O-])cc3)cc2)cc1 | 0.165 | 0.27
CCCN1CCC(NCc2cccc(Cl)c2)CC1 | 0.415 | -0.675
CN1C(=O)C(=O)C(=C(O)c2ccc(Cl)cc2)C1c1ccccc1 (configuration not stated) | -0.48 | -1.08
C=CCNc1nc(OC)nc(OC)n1 | -0.2 | -0.575
CCC(CC)C(=O)N1CCN(c2ccc([N+](=O)[O-])cc2)CC1 | -0.445 | 0.345
COc1nc(Nc2cc(Cl)ccc2OC)nc(OC)n1 | 1.24 | 0.4
COc1ccc(-c2cnn(-c3ccccc3)c2N)cc1OC | 0.7 | 1.36
Cc1nc2ccc(Br)cc2[nH]1 | 0.75 | -0.015
COc1cccc(NC(=O)CCCc2ccccc2)c1 | -0.035 | 0.23
Clc1ccccc1N1CCN(Cc2ccsc2)CC1 | 0.385 | 0.22
OCCN(CCO)CC1CC=CCC1 (configuration not stated) | 0.2 | -0.035
CC(=O)N(C1=C(N2CCCC2)C(=O)c2ccccc2C1=O)c1cccc(Cl)c1 | -0.285 | -0.29
COc1ccc(OC)c(CN2CCCN(C)CC2)c1 | 0.405 | -0.955
CC(CCc1ccccc1)N1CCN(c2ccccc2F)CC1 (configuration not stated) | 0.31 | 0.02
O=c1nc2cc3[nH]c4c(=O)c5ccccc5c4[nH]c3cc2n1 | -0.085 | -0.295
Cc1occc1C(=O)Nc1ccc(F)cc1F | -0.925 | -0.305
CN1CCN(C(=O)c2ccc(Cl)cc2)CC1 | 1.25 | -1.28
CCN(CC)CCN1C(=O)C(O)=C(C(C)=O)C1c1ccc(Cl)cc1 (configuration not stated) | 0.255 | -0.055
Cc1ccc(C)c2c(N)c3c(nc12)CCCCC3 | 0.2 | -1.16

Compound | T3 sensor activation Q score [1] | T2 sensor activation Q score [2]
Nc1ncc(Cc2cccc([N+](=O)[O-])c2)s1 | 0.085 | 0.095
CCOc1ccc(NC2=C([N+](=O)[O-])CS(=O)(=O)C2)cc1 | -0.295 | -0.875
O=C(O)C1CCC(c2ccccc2)CC1 (configuration not stated) | -0.185 | 0.76
COc1ccc(C2C3C(=O)N(Cc4ccccc4)C(=O)C3ON2c2ccccc2)cc1 (configuration not stated) | -0.465 | -0.795
Cc1cccc(NC(=O)COc2ccc(Br)cc2)c1C | 1.33 | -0.21
CN(C)CCN(C)Cc1ccccc1 | 0.525 | -0.245
COc1ccc(CC(=O)Nc2cccc(F)c2)cc1 | -0.29 | 1.88
COc1ccc(CN2CCN(Cc3ccc4c(c3)OCO4)CC2)cc1 | -0.23 | 0.12
COc1ccc(C2OCC3(CO)C(C)C=C(C)C2C3C)cc1 (configuration not stated) | 0.205 | -0.605
CN(C)CCN(C)Cc1cccc(Cl)c1Cl | 0.49 | 0.165
COc1nc(Nc2ccc(C)cc2)nc(OC)n1 | -0.15 | -0.245
NC(=O)c1cc(N2C(=O)CCC2=O)ccc1N1CCOCC1 | 0.24 | 0.22
Cc1ccsc1CN1CCN(c2ccc(Cl)cc2)CC1 | 0.255 | 0.105
Cc1ccc(C(=O)Nc2ccc(C(=O)O)cc2)o1 | 0.12 | -0.195
COc1ccc(-c2cn[nH]c2N)cc1OC | 0.5 | 0.29
CC(=O)C1=C(O)C(=O)N(CC(=O)O)C1c1ccccc1 (configuration not stated) | -0.46 | 0.665
CC(NCCC(=O)O)c1ccccc1 (configuration not stated) | -0.975 | -1.75
O=C(O)c1ccc2c(c1)C(=O)N(CCO)C2=O | -0.525 | -0.405
